Data reported in publication PMC9133015 (Nature Communications, 2022).
These are yes or no findings as the source states them, for the method shown. In cells and extracts the contact can be indirect. Some entries that bind do so weakly or less than the wild type.

Amino acid sequences for entries named in this document (tags omitted).
UniProt Q13541: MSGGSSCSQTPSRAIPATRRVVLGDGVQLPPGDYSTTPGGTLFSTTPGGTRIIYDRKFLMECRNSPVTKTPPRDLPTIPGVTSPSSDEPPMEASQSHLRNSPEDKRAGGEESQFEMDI

Molecular target: T1, dual-specificity tyrosine phosphorylation-regulated kinase 2 (human (endogenous in cells; the cell line is not named, all cell lines of the paper are human)) (UniProt Q92630)
T1 sequence: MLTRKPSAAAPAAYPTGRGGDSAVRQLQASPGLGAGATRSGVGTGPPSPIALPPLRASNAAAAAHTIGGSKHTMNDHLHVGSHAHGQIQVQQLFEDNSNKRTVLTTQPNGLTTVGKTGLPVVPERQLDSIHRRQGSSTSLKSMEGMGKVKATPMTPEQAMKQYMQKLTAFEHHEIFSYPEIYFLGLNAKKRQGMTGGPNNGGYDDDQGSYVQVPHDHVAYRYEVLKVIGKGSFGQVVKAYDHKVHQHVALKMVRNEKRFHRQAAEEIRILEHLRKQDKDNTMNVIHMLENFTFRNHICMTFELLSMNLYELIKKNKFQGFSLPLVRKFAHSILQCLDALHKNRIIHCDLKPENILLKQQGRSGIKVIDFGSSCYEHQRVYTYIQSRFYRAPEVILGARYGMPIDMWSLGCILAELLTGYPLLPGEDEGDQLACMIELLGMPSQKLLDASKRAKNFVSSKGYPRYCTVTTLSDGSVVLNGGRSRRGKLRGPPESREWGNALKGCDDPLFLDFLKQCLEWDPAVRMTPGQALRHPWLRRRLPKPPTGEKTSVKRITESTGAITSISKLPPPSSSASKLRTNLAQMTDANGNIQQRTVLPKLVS
Test: co-IP; cell lysate (PBS with Triton X-100, CHAPS, protease inhibitors) incubated with anti-DYRK2 antibody 2 h at 4 °C, then protein A-Sepharose beads overnight at 4 °C; rabbit IgG as control; 1% of the lysate as input; blot for p-4E-BP1 (Thr37/46)

- binding: binds
Substance: 4E-binding protein 1 phosphorylated at Thr37/46 (from UniProt Q13541 1-118)
